The text below walks through data of paper PMC7835061.

Results are given in words; binding and its absence hold for the method and conditions named. Binding seen in cells or lysates may run through a third protein. Some results given as binding are weak or reduced against the parent protein; the word gives no strength.

The target in the assay is T1, Sparc/osteonectin, cwcv and kazal-like domains proteoglycan 1 (SPOCK1) (human (endogenous in MCF7 and SKBR3)) (UniProt Q08629).
T1 sequence: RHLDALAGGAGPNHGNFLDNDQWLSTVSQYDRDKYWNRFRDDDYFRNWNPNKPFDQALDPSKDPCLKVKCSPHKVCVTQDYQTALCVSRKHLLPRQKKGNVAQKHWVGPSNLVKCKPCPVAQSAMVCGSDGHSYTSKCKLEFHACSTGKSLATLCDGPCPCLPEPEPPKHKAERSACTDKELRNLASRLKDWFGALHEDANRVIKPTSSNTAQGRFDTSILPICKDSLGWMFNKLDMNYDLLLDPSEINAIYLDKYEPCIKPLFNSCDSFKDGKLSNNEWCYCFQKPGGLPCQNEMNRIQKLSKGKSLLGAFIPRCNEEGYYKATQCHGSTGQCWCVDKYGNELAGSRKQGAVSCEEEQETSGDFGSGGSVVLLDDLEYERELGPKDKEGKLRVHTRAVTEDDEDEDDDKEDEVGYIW
Briefly: co-IP; endogenous proteins in MCF7 and SKBR3 cell lysates; primary antibody overnight at 4° C, Protein A/G PLUS-Agarose beads, control IgG preclearing, washed 3 times with lysis buffer, western blot.

B1: SIX homeobox 1 (SIX1) (protein, UniProt Q15475 1-284)
chain: MSMLPSFGFTQEQVACVCEVLQQGGNLERLGRFLWSLPACDHLHKNESVLKAKAVVAFHRGNFRELYKILESHQFSPHNHPKLQQLWLKAHYVEAEKLRGRPLGAVGKYRVRRKFPLPRTIWDGEETSYCFKEKSRGVLREWYAHNPYPSPREKRELAEATGLTTTQVSNWFKNRRQRDRAAEAKERENTENNNSSSNKQNQLSPLEGGKPLMSSSEEEFSPPQSPDQNSVLLLQGNMGHARSSNYSLPGLTASQPSHGLQTHQHQLQDSLLGPLTSSLVDLGS
For the molecule B1, the binding result was “binds”.
